Measured values reported in PMC6805484.
Substitutions are numbered along the chain they refer to. Results are given in words; binding and its absence hold for the method and conditions named. In cells and extracts the contact can be indirect. A yes stands for co-enrichment or nearness to the bait. Other partners may have been found. Tags and fused reporters may be left off the sequences shown.

The chains behind the UniProt entries cited, without tags or fusion partners.
UniProt Q15717: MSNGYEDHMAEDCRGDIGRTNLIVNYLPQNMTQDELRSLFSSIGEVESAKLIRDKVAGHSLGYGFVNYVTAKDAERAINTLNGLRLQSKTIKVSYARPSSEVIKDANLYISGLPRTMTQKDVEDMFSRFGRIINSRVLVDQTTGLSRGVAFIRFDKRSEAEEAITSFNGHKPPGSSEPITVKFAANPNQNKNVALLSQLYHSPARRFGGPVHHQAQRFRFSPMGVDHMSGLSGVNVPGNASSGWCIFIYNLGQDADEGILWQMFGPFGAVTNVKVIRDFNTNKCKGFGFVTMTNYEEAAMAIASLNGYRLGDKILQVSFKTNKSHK
UniProt O00425: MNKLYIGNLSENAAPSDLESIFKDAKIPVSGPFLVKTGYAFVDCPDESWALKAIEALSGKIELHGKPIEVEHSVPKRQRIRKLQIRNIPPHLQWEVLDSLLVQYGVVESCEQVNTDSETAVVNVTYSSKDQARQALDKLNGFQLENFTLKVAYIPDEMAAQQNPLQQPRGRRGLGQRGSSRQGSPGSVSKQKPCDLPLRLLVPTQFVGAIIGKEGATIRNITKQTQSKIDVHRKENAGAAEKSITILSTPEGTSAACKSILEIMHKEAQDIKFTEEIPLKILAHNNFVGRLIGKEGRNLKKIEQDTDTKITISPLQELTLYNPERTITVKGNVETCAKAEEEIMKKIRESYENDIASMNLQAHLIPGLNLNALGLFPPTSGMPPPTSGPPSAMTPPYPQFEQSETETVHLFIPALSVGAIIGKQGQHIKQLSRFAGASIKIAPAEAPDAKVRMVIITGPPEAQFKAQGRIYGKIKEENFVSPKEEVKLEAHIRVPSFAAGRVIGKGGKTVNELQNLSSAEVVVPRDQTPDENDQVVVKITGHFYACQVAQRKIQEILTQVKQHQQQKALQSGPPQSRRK
UniProt Q9Y6M1: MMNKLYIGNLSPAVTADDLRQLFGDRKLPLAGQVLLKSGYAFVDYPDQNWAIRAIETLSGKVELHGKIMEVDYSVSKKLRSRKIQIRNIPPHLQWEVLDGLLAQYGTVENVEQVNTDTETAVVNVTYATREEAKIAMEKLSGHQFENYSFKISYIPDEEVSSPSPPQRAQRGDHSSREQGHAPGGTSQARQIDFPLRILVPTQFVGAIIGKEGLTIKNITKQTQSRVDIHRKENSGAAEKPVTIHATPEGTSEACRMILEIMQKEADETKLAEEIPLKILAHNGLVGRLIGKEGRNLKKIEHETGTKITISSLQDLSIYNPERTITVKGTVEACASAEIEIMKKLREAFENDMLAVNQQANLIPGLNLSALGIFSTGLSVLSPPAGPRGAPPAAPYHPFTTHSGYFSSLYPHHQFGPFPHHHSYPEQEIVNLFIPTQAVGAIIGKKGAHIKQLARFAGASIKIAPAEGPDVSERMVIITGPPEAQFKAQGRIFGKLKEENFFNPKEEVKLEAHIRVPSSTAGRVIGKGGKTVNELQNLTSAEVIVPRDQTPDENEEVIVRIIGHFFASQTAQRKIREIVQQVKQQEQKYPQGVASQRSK
UniProt P11940: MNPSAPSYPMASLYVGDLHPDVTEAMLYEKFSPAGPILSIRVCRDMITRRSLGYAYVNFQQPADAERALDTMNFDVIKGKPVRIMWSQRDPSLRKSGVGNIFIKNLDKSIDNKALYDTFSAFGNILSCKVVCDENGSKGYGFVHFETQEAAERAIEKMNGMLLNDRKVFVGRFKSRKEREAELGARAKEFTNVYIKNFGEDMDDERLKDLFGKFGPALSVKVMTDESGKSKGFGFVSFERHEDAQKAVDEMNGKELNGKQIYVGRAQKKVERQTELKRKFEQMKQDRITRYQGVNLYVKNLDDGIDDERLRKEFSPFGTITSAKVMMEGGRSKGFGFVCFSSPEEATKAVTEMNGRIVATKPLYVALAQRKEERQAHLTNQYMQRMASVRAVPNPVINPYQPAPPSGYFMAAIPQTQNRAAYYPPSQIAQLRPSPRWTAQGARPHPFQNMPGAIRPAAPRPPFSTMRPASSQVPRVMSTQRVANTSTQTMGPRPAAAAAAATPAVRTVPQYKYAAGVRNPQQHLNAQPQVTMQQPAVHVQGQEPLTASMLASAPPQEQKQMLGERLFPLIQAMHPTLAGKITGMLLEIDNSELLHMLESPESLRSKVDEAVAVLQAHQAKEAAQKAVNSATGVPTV

Tests used:
[1] = molecular target: T1, GFP-MKRN1^wt (Makorin Ring Finger Protein 1, wild type, N-terminally GFP-tagged) (human) (UniProt Q9UHC7); test: affinity purification with mass spectrometry; GFP-trap agarose beads with cleared lysates of HEK293T cells transiently expressing N-terminally GFP-tagged MKRN1 wt or mutants (medium or heavy SILAC) or GFP alone (light SILAC); mRIPA buffer, 1 h at 4 °C; three replicates, FDR < 5%
T1 sequence: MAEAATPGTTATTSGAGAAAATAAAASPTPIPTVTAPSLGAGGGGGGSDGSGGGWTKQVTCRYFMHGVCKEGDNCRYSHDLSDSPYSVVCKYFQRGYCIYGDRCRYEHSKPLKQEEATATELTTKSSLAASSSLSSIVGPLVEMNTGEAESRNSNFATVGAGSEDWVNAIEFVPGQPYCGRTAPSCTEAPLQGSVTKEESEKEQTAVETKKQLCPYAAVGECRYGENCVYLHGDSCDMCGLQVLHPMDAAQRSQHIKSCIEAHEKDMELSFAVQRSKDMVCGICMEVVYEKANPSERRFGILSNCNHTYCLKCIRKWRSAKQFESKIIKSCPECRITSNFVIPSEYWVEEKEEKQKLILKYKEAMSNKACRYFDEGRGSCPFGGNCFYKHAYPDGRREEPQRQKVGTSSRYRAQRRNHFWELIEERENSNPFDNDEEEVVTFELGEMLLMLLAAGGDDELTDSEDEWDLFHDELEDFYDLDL

[2] = molecular target: T2, GFP-MKRN1^RINGmut (H307E, ligase-dead) (human) (UniProt Q9UHC7); test: as above
T2 sequence: T1 sequence with H307E

binding [1] | binding [2] | Substance
binds |  | ELAVL1 (endogenous) (from UniProt Q15717 1-326)
binds |  | IGF2BP3 (endogenous) (from UniProt O00425 1-579)
binds |  | IGF2BP2 (endogenous) (from UniProt Q9Y6M1 1-599)
binds | binds | cytoplasmic poly(A)-binding protein PABPC1 (endogenous) (from UniProt P11940 1-636)
